Assay results from patent publication US20250164463A1, “SCREENING METHOD AND THERAPEUTIC AGENT FOR MENTAL DISORDER” (Fujita Health University, priority 2022, published 2025).

How the values were obtained:
[1] = test system: patients with multiple sclerosis (MS); details: Non Patent Literatures 1 and 2; cited from earlier work
[2] = test system: mice after alcohol intake and alcohol abstinence; details: clemastine 10 mg/kg orally every day from end of EtOH administration to final day of behavioral tests; EtOH+clemastine group vs EtOH group; FIG. 5(b)

## CN1CCC[C@@H]1CCO[C@](C)(c1ccccc1)c1ccc(Cl)cc1 [clemastine]
[1]
  safety and efficacy in patients with multiple sclerosis: proved significant safety and efficacy
[2]
  recognition dysfunction (novel object recognition test): significantly remitted
